Assay results: article PMC12359225

Amino acid sequences for entries named in this document (tags omitted). A change or cut given only in a name is not applied to a line headed by its entry.
UniProt P63330: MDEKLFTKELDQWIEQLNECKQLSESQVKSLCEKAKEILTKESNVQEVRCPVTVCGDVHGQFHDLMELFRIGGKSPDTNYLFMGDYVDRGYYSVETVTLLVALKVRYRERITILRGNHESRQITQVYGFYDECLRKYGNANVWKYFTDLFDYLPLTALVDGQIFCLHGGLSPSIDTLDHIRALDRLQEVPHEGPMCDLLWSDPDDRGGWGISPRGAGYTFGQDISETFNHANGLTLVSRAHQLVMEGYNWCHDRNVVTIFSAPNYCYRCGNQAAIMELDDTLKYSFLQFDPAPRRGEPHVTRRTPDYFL

Molecular target: T1, CREB-regulated transcriptional coactivator 2 (mouse (endogenous in primary calvarial osteoblasts)) (UniProt Q3U182)
T1 sequence: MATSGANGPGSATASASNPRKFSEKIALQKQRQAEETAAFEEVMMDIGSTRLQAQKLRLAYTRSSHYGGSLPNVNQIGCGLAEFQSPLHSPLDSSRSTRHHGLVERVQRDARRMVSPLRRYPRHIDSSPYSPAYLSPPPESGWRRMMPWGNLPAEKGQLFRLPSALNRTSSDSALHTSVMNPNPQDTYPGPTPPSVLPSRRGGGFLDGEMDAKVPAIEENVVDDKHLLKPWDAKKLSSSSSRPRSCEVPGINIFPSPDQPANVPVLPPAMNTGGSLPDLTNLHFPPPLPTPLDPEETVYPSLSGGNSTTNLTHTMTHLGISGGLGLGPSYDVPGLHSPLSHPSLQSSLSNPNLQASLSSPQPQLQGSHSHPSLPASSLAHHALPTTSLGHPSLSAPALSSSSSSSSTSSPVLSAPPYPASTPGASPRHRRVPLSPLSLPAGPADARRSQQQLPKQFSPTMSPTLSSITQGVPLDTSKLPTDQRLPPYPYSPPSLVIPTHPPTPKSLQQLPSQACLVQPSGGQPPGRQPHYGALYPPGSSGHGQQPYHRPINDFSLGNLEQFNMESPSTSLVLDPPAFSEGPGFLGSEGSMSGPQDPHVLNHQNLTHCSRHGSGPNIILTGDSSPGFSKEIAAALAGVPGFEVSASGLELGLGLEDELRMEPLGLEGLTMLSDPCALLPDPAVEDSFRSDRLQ
Test: co-IP; endogenous proteins; lysates of mature primary mouse calvarial osteoblasts, basal or treated with 10 nM PTH (1-34) for 15 min; lysis buffer 0.5% Nonidet P-40, 50 mM Tris pH 8.0, 150 mM NaCl, 1 mM EDTA; antibody and protein AG-agarose overnight at 4 °C; immunoblot

binding	Substance
binds	protein phosphatase 1 (enzyme)
binds	protein phosphatase 2 (from UniProt P63330) (enzyme)

These are yes or no findings as the source states them, for the method shown. Binding seen in cells or lysates may run through a third protein. Binding calls can cover weak binding; strength is not graded here.
